Percent effect of library compounds

From ChEMBL document CHEMBL3988442, “University of Dundee, Small-Polar-MMV Screening Library” (2021).

Mtb cholesterol medium: 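Whole-cell growth test on Mycobacterium tuberculosis, read after 4 days in a medium based on cholesterol and the lipid DPPC; the read-out is not stated. Tested at 50 µM. The record gives no direction; compounds that gave an IC50 in retests scored well above the rest, so higher reads as more growth inhibition. Size under these conditions: about 69,000 compounds, about 370 of them at 50% or above in at least one test.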
Mtb glucose medium: 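Phenotypic screen: M. tuberculosis growth, glucose 7H9 medium, 3 days; the read-out is not stated. Concentration: 50 µM. Direction is inferred from retests: higher values go with more growth inhibition. Size under these conditions: about 69,000 compounds, about 760 of them at 50% or above in at least one test.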

Values are the deposited “Percent Effect”, in %.
How 0% and 100% were set is not recorded. Most values in the screen are low, and negative values occur.
This is an unselected part of the compounds tested.
Two or more numbers in one place are separate tests of the same structure; such repeats can differ widely.

| SMILES | Mtb cholesterol medium | Mtb glucose medium |
|---|---|---|
| `Cc1nc(C)n(CC2CCCN2CC(=O)Nc2nncs2)n1` (stereo not shown) | 39.18% | 52.95% |
| `CCCC(C)N(C)C(=O)c1nc(S(C)(=O)=O)n2ccccc12` (stereo not shown) | -7.586% | -8.083% |
| `CC(C)Oc1ccc2c(NC(=O)CN(C)C)nn(CC(F)(F)F)c2c1` | -27.81% | -21.9% |
| `Cc1cccnc1CN(C)CC1(O)CCCN(CC2CCCCC2)C1=O` (stereo not shown) | 14.31% | 17.49% |
| `COCc1cc(N2C[C@@H](C)[C@](O)(C3CC3)C2)ncn1` | -44.54% | 14.62% |
| `Cc1nnc(CN2CCN(CC(O)c3cccc(F)c3)CC2)n1C` (stereo not shown) | -18.69% | 15.48% |
| `CCCn1c(C)c(CC(=O)NCC(C)O)c2c1CC(C)(C)CC2=O` (stereo not shown) | -5.151% | 13.8% |
| `CCn1ncc2c1CCCC2NCc1cscn1` (stereo not shown) | 2.608% | 31.88% |
| `CN1CCCC2(CC1)CCN(C(=O)CCc1ccccc1F)CC2` | 1.448% | 13.97% |
| `Cc1nnc2n1CCN(C(=O)c1cc(Cl)c[nH]1)C2` | -12.92% | -9.083% |
| `Cc1ccc(F)cc1S(=O)(=O)NCc1cccc(CS(C)(=O)=O)c1` | 21.28% | 21.65% & 15.65% |
| `CN(CCO)c1nc(-c2ccccn2)nc2c1CCNC2` | -19.31% | 2.368% & -8.886% |
| `COc1ccc2c(c1)OCC(CNC(=O)c1ccc3[nH]nnc3c1)C2` (stereo not shown) | -14.97% | -9.015% |
| `O=C(O)C(F)(F)F.O=C(O)C(F)(F)F.c1csc(CN2CCCn3cnc(CN4CCCC4)c3C2)c1` | -16.52% | -2.313% |
| `CCN(CCC(=O)NC1CC1)Cc1ccc(Cl)s1` | -0.7764% | -10.62% |
| `Cc1cccc(C(=O)N2CCCCC2c2nc(C)cs2)n1` (stereo not shown) | -13.37% | -1.713% |
| `Cc1ccc(N2CCC3(CCN(C(=O)c4ccsc4)CC3)CC2)nn1` | 3.833% | 13.34% |
| `CC(C)CN(Cc1cnn(C)c1)C(=O)C1COc2ccccc2C1` (stereo not shown) | -10.88% | -23.73% |
| `Cc1nn(C)c(C)c1NC(=O)CCn1ncc2c(C)cccc21` | 0.09392% | -17.93% |
| `c1csc(-c2nc(CN3CCOC(Cn4cccn4)C3)co2)c1` (stereo not shown) | -6.934% | 33.25% |
| `CC(C)COCC1CN(Cc2ccc3c(c2)OCO3)Cc2ncn(C)c21.O=C(O)C(F)(F)F.O=C(O)C(F)(F)F` (stereo not shown) | 3.814% & 8.802% | -6.926% |
| `Cc1nn(CC(=O)N2CCN(c3ncccn3)CC2)c(C)c1Cl` | 4.175% | -7.507% |
| `CCN(CC)C(=O)c1cc(Br)cc(S(=O)(=O)N2CCOCC2)c1F` | -4.67% | 5.88% |
| `Cc1ccc(N2CCCC(N3CCN(CC(F)F)CC3)C2=O)cc1` (stereo not shown) | 4.002% | 8.883% |
| `CCc1ccc(C(=O)N2CCCn3nnc(Cn4cccn4)c3C2)cc1` | -27.54% | 19.92% |
| `O=C(NC[C@H]1OC[C@@H](NC2CCC(F)(F)CC2)[C@@H]1O)c1cccs1` | -4.466% | -5.281% & -17.44% |
| `CC(=O)N1CCN(CCNS(=O)(=O)c2ccc(F)c(F)c2)CC1` | 7.376% | 11.31% |
| `CC(NC(=O)NCCCn1cncn1)c1ccc(C#N)cc1` (stereo not shown) | -11.94% | -7.697% |
| `Cc1nn(CC(=O)NCc2cc3n(n2)CCCN(CC(C)C)C3)cc1Cl` | -8.8% | -5.53% & -3.327% |
| `COc1ccc(-n2cc(CCO)cn2)cc1C` | -20.34% | 35.3% |
| `Cc1cnn(-c2ccc(S(N)(=O)=O)cc2F)c1` | 9.909% | 1.89% |
| `Cc1cnc(CNC2CCc3nc(C(C)C)nn3C2)cn1` (stereo not shown) | 3.05% | -8.196% |
| `Cc1nc(N2CCC(C(O)c3nccn3C)CC2)c2cccnc2n1` (stereo not shown) | -14.18% | -45.15% |
| `c1cnnc(N2CCCC(NCc3cccc4c3OCO4)C2)c1` (stereo not shown) | -0.5928% | -13.39% & -4.029% |
| `CN1CCOC(CNCC(=O)NCCc2ccc(F)cc2)C1` (stereo not shown) | -8.367% | -10.14% |
| `[H][C@@]12C[C@H](c3nc(C)no3)O[C@]1([H])CCN(C(=O)Cc1ccsc1)C2` | -24.53% | 1.947% |
| `NS(=O)(=O)CCNC(=O)c1ccc(OCc2ccccc2)nc1` | -7.001% | -5.936% & 1.234% |
| `Cc1cnn(CCC(=O)N2CCCC(c3nc(C)c(C)s3)C2)c1` (stereo not shown) | -20.27% | 1.71% |
| `Cc1nn(-c2ccccc2)c2c1C(c1ccc(C(=O)O)cc1)CC(=O)N2` (stereo not shown) | -0.7266% | 12.41% |
| `COc1ncccc1NC(=O)N1CCC(c2ccc(O)cc2)CC1` | -0.7782% | 14.53% |
| `[H][C@]12CC[C@]([H])(CN(C(=O)CCS(C)(=O)=O)C1)N(Cc1ccccn1)C2=O` | -5.958% | -29.86% & -1.526% |
| `[H][C@@]12CCN(C(=O)c3scnc3C)CC[C@@]1([H])N(c1cccnc1)CCO2` | 12.99% | 15.4% & -2.542% |
| `O=C(O)C(F)(F)F.[H][C@]12CCN(C(=O)C3CC3)CC[C@@]1([H])S(=O)(=O)CCN2Cc1cccc(C)n1` | 19.54% | -42.46% & -16.94% |
| `CN(C)c1cc(CNC(=O)c2cccnc2O)ccn1` | -10.33% | 7.064% |
| `COc1ccc2c(c1)c(-c1nc(N(C)C)ncc1CN)cn2C` | 29.46% | 56.12% |
| `CCC(C)N(Cc1sccc1C)C(=O)c1ccc2cccnc2n1` (stereo not shown) | -2.973% | -6.567% & -10.58% |
| `CCCNC(=O)C(C)NC(=O)CCc1ccccc1Br` (stereo not shown) | -7.589% | -5.369% & -11.87% |
| `Cc1nccn1C1CCCN(C(=O)c2sccc2-n2cnnn2)C1` (stereo not shown) | 3.596% | -18.03% |
| `COCC1CN(Cc2c(C)noc2C)Cc2ccnn2C1.O=C(O)C(F)(F)F.O=C(O)C(F)(F)F` (stereo not shown) | -8.879% | 11.64% |
| `Cc1ccc(C(=O)NS(=O)(=O)Cc2ccccc2)cc1S(C)(=O)=O` | 0.5438% | -6.162% |
| `Nc1nnc(SCC(=O)NCC(O)c2ccccc2)s1` (stereo not shown) | -14.2% | -3.983% |
| `CC(C)CC(=O)N1Cc2ccccc2CC1C(=O)Nc1nccs1` (stereo not shown) | -5.104% | 37.62% |
| `O=C(O)C(F)(F)F.[H][C@@]12COC[C@]1(CNC(=O)C1CCC1)CN(Cc1ccccc1C)C2` | 1.879% | 28.14% |
| `O=C(NCCOCCO)c1cccnc1Oc1ccc(Cl)cc1` | -34.59% | -45.5% |
| `CN(Cc1ncc(C(C)(C)C)o1)C1CCCN(c2cccnn2)C1` (stereo not shown) | 6.292% | -6.996% |
| `COCCN(Cc1coc(-c2ccc(OC)cc2)n1)C1CC1` | 7.366% | 40.19% |
| `CCC1CN(C(=O)CN2CCN(c3nccc(OC)n3)CC2)CCO1` (stereo not shown) | -17.58% | 8.828% |
| `OC(COCc1ccccc1)CSc1nnc2ccccn12` (stereo not shown) | -4.419% | -1.335% |
| `COc1cccc(NC(=O)N(CCO)Cc2ccsc2)c1` | -11.67% | -3.332% & -3.345% |
| `Cc1cc(NC(=O)CN2CCc3cnc(C)nc3C2)on1` | -11.86% | 23.54% |
| `CC(=O)c1c(C)nn(CC(=O)Nc2ccc(F)cc2)c1C` | -24.47% | -2.261% & -45.92% |
| `Cc1nc(CN2CCCC(NCc3ccc(Cl)s3)C2)no1` (stereo not shown) | 1.995% | 15.04% |
| `COc1ccc(-c2n[nH]cc2CN(C)Cc2nccn2C)c(F)c1` | -1.851% | 26.11% |
| `CC(C)CN1CCCC1c1ccc(C(=O)Nc2ccc3[nH]nnc3c2)s1` (stereo not shown) | -6.453% & -2.165% | 24.75% |
| `COc1ccc(NC(=O)Cn2cc(-c3ccccc3)ncc2=O)cn1` | -33.14% | -38.84% |
| `COc1ccccc1OCCCN(C)c1cc(C)nc(N)n1` | 12.09% | 46.53% |
| `CCN1CCC2(COCc3cnc(-c4cccnc4)nc32)C1` (stereo not shown) | -16.49% | -29.48% |
| `CC(C)c1nn(C)c(N(C)C)c1CNCc1cccc2c1OCO2` | -7.622% | -4.051% |
| `CC(C)C(C)(C#N)NC(=O)CN1CCC(c2ccnn2CCO)CC1` (stereo not shown) | 4.185% | -20.19% |
| `CC(C)NC1CC2(CCNCC2)c2cc(F)ccc21.Cl.Cl` (stereo not shown) | 12.32% | -1.302% & 10.3% |
| `O=C(CCc1cc2n(n1)CCN(Cc1ncc[nH]1)C2)N1CCCC1` | -17.99% | -47.91% |
| `Cc1nocc1C(=O)N1CCc2c(CN(C)C(C)C)n[nH]c2C1` | -5.725% | 17.87% |
| `Cc1nn(C)c2ncnc(N3CCC(O)(CN4CCCC4)CC3)c12` | 14.15% | -16.05% |
| `Cc1cc(NCc2csc(C)n2)no1` | 17.49% | 10.38% |
| `CN(Cc1cccc(C#N)c1)Cn1nc(C(C)(C)C)ccc1=O` | 9.617% | 0.9079% |
| `O=C(O)C(F)(F)F.O=C(O)C(F)(F)F.[H][C@]12C[C@@H](C(=O)NC)CO[C@@]1([H])CCN(Cc1ccc3ccccc3n1)C2` | -9.34% | -12.1% |
| `Cc1ccc(C#N)c(N2CCCC(c3nccn3Cc3cscn3)C2)n1` (stereo not shown) | -2.875% & -6.484% | -10.46% |
| `O=C1COc2ccc(S(=O)(=O)NC3CC3)c3c2N1CCC3` | 21.14% | 4.452% |

For reference, 8 entries once more:

SMILES	Mtb cholesterol medium	Mtb glucose medium
CC(NC(=O)NCCCn1cncn1)c1ccc(C#N)cc1 (stereo not shown)	-11.94%	-7.697%
CN(Cc1ncc(C(C)(C)C)o1)C1CCCN(c2cccnn2)C1 (stereo not shown)	6.292%	-6.996%
CC(C)CN1CCCC1c1ccc(C(=O)Nc2ccc3[nH]nnc3c2)s1 (stereo not shown)	-6.453% & -2.165%	24.75%
Cc1cccc(C(=O)N2CCCCC2c2nc(C)cs2)n1 (stereo not shown)	-13.37%	-1.713%
Cc1nccn1C1CCCN(C(=O)c2sccc2-n2cnnn2)C1 (stereo not shown)	3.596%	-18.03%
CC(C)CC(=O)N1Cc2ccccc2CC1C(=O)Nc1nccs1 (stereo not shown)	-5.104%	37.62%
CCN(CC)C(=O)c1cc(Br)cc(S(=O)(=O)N2CCOCC2)c1F	-4.67%	5.88%
Cc1ccc(N2CCC3(CCN(C(=O)c4ccsc4)CC3)CC2)nn1	3.833%	13.34%